Source: US10273208B2, “Screening methods for the binding affinity of chemical entities to biological molecules and NEDD4-1 inhibitors identified by the screening methods” (Northwestern University, priority 2014, dated 2019)

Test system: NEDD4-1 HECT domain
Assay: Covalent labeling of NEDD4-1 HECT domain (gel filtration, whole protein ESI-MS)
Assay type: binding, human
Details: NEDD4-1 HECT mutants 10 μM, 4 h; 1, 2 at 100 μM, 3 at 1 mM
Method: 10 μM of NEDD4-1 HECT domain in 50 mM HEPES 150 mM NaCl 0.1 mM EDTA 1 mM DTT pH 7.5 was treated with a mixture of ten fragments (from 10 mM each DMSO stock solution mixtures; final concentrations: 100 μM of each fragment, and 1% DMSO). Fragment structures and mixture compositions were the same as reported previously. The reaction mixture was incubated for 4 h at 23° C. before being passed through Zeba gel filtration columns (Thermo, 7K MWCO) to remove unreacted fragments. The protein solution was then immediately analyzed by whole protein LC/ESI-MS.
Accurate-mass data were obtained on an Agilent 6210A LC-TOF mass spectrometer in positive ion mode using electrospray ionization. Samples were chromatographed on the LC-TOF instrument using a Poroshell 120 EC-C18 HPLC column (2.1*50 mm, 2.7 micron), an Agilent Series 1200 HPLC binary pump, and an Agilent Series 1200 autoinjector. The HPLC column was held at 45° C. and the autosampler was held at 8° C. Mobile Phase A was a solution of 0.1% formic acid in water:acetonitrile (19:1). Mobile Phase B was a solution of 0.1% formic acid in acetonitrile. The flow rate was set to 250 μL/min. The gradient used was 0% B for 2 minutes, ramping linearly to 90% B from 2 minutes to 5 minutes, holding at 90% B from 5 minutes to 7 minutes, and then returning to 0% B at 7.1 minutes. […]

Structure (SMILES)	cysteine of NEDD4-1 modified (Cys to Ala point mutants)
COC(=O)/C=C/CNC(=O)c1c(C)n(C)c2ccc(OC)cc12 [Compound 1, Methyl(E)-4-(5-methoxy-1,2-dimethyl-1H-indole-3-carboxamido)but-2-enoate]	selectively react with the non-catalytic Cys^627
COC(=O)/C=C/CNC(C)=O [Compound 3, methyl (E)-4-acetamidobut-2-enoate]	catalytic Cys^867 of NEDD4-1 was more reactive than Cys^627
